Assay results: the supplement of paper PMC10849652
The other results are listed elsewhere or left out.

By UniProt entry, the sequences of proteins in these tests, tags left out. Where a name states a change or a piece, a line headed by the entry shows the natural chain unless it says otherwise.
UniProt Q9H0R1: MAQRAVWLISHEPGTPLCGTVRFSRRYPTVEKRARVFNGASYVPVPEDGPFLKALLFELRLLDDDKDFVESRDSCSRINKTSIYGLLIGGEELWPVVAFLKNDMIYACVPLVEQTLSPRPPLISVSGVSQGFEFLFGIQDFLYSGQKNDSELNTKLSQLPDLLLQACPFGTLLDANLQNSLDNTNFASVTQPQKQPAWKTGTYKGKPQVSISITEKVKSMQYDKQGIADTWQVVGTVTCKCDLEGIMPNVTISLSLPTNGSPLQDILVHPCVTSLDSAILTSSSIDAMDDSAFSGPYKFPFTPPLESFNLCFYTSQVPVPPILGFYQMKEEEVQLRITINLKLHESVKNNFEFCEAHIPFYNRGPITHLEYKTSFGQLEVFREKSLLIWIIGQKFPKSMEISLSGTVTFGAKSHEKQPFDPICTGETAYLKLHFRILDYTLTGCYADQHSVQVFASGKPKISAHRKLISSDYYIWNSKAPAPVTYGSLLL
UniProt P13798: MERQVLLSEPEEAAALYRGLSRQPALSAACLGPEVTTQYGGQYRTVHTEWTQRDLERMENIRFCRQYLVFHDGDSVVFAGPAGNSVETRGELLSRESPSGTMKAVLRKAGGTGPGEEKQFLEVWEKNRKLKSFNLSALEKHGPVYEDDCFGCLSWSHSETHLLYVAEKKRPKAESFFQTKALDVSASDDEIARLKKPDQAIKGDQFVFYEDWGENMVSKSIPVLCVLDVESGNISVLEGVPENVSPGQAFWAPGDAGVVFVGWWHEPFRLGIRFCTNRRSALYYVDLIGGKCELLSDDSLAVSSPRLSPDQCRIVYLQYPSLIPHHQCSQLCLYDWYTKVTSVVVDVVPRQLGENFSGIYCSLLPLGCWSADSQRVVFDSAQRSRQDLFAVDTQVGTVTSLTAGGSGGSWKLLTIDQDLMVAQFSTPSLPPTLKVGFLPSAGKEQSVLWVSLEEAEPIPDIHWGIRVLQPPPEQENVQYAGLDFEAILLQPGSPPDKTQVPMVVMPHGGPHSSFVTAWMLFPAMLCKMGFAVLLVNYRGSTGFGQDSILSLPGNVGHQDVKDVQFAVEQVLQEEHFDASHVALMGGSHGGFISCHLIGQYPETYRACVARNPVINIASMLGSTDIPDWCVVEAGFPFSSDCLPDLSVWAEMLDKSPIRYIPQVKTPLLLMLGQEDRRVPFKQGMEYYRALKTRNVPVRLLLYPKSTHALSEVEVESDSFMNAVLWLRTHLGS
UniProt Q9NWB6: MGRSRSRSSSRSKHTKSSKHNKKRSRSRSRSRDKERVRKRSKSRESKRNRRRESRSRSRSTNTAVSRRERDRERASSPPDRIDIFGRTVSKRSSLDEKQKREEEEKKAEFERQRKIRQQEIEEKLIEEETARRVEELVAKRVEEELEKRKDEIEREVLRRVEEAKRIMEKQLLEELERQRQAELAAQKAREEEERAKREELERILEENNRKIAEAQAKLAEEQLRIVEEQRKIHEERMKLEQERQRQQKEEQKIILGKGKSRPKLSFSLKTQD
UniProt P61204: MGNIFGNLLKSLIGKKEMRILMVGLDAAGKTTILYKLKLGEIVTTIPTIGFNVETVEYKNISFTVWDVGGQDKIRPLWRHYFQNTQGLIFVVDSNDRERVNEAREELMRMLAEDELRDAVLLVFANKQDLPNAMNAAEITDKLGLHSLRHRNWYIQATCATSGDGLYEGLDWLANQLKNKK
UniProt O43182: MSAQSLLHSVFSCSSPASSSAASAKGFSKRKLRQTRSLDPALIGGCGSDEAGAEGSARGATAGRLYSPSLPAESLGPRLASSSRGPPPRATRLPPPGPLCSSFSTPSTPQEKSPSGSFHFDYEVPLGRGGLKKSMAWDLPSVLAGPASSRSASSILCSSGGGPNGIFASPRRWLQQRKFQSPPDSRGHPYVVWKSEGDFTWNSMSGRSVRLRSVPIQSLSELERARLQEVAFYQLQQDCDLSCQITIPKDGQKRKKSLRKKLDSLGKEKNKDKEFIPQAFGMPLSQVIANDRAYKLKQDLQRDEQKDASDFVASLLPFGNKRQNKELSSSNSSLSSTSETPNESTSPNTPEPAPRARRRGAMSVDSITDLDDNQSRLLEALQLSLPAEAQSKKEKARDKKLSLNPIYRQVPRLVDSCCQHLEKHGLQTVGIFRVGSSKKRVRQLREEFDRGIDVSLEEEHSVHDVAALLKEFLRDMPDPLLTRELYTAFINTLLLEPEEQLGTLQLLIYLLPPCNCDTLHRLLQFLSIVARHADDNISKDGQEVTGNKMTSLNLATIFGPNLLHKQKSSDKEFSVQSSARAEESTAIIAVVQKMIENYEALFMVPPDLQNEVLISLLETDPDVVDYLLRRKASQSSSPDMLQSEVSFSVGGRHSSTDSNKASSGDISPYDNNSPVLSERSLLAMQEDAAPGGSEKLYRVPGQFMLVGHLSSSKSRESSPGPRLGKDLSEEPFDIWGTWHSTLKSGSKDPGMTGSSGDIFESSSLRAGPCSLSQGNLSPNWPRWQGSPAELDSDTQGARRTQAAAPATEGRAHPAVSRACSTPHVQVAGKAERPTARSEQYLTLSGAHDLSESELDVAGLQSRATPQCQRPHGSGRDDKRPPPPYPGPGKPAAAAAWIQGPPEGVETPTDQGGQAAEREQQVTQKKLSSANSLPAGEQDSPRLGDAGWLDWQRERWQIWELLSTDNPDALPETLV
UniProt O95376: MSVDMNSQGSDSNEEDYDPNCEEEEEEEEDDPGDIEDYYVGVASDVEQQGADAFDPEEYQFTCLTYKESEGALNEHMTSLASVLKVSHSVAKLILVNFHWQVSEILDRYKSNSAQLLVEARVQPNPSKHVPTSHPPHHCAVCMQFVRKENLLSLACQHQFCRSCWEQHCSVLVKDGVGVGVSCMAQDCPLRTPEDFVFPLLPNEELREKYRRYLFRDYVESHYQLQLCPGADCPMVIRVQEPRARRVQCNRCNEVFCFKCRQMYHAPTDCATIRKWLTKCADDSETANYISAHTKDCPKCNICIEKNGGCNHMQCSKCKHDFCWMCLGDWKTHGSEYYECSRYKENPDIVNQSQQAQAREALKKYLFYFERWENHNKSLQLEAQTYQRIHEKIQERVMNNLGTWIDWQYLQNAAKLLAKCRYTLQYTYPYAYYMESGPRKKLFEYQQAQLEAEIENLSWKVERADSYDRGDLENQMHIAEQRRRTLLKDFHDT
UniProt P10398: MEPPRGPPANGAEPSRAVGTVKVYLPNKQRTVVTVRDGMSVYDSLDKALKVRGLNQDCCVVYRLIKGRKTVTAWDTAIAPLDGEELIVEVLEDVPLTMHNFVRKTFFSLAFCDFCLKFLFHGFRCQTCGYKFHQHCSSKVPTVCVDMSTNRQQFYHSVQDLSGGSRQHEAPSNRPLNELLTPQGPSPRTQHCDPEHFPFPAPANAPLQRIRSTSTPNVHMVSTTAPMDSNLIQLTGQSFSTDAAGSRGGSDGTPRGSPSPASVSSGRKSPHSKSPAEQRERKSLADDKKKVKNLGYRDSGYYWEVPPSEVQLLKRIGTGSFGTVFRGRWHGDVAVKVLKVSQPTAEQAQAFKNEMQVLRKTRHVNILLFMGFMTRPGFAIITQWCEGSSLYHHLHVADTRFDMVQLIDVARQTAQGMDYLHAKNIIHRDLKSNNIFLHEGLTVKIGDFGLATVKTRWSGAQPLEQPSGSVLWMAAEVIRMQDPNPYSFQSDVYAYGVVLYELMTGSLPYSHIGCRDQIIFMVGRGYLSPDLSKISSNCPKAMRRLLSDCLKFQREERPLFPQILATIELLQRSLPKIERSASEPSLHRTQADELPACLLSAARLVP

Columns and labels:
Test in all cases: log2 fold change, soluble protein after heating vs DMSO (PISA); higher = thermal stabilisation; K562 lysate, 10 uM; active = over 0.2 and 3.5 SD of the protein, either way, in both replicates (recomputed)
vemurafenib = compound: CCCS(=O)(=O)Nc1ccc(F)c(C(=O)c2c[nH]c3ncc(-c4ccc(Cl)cc4)cc23)c1F [vemurafenib]
How it was run: (§1)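 Values give the log-two fold change in thermal stability against solvent controls, from duplicates. Crude K562 extract at 1 mg/mL protein, made by dounce homogenisation in PBS pH 7.4 with 1 mM MgCl2, was treated with 10 μM compound for 30 min. After 3 min heating across 48°C-58°C, aliquots were pooled, adjusted to 0.5% NP-40 at 4°C and centrifuged at 21,000xg for 90 min. The supernatant was measured by TMTpro 16plex LC-MS/MS with channel sums equalised.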

[1] = compound: CCCS(=O)(=O)Nc1ccc(F)c(C(=O)c2c[nH]c3ncc(Cl)cc23)c1F
How it was run: as §1

barasertib = compound: CCN(CCCOc1ccc2c(Nc3cc(CC(=O)Nc4cccc(F)c4)[nH]n3)ncnc2c1)CCOP(=O)(O)O [barasertib]
How it was run: as §1

[2] = compound: CC[C@@H]1C(=O)N(C)c2cnc(Nc3ccc(C(=O)NC4CCN(C)CC4)cc3OC)nc2N1C1CCCC1
How it was run: as §1

volasertib = compound: CC[C@@H]1C(=O)N(C)c2cnc(Nc3ccc(C(=O)N[C@H]4CC[C@H](N5CCN(CC6CC6)CC5)CC4)cc3OC)nc2N1C(C)C [volasertib]
How it was run: as §1

[3] = compound: CCn1c(C(=O)N(C2CC2)C2CC2)cc2c3c(ncn3C)c(Nc3cc(C)n(C)n3)nc21
How it was run: as §1

[4] = compound: CCn1cc(-c2ccnc3[nH]c(-c4cccc(CN(C)C)c4)cc23)c(-c2ccc(NC(=O)N(C)C)cc2)n1
How it was run: as §1

[5] = compound: CN1CCC(CNc2ccc3ncc(-c4cccc(OC(F)(F)F)c4)n3n2)CC1
How it was run: as §1

saracatinib = compound: CN1CCN(CCOc2cc(OC3CCOCC3)c3c(Nc4c(Cl)ccc5c4OCO5)ncnc3c2)CC1 [saracatinib]
How it was run: as §1

sotrastaurin = compound: CN1CCN(c2nc(C3=C(c4c[nH]c5ccccc45)C(=O)NC3=O)c3ccccc3n2)CC1 [sotrastaurin]
How it was run: as §1

alvocidib = compound: CN1CC[C@H](c2c(O)cc(O)c3c(=O)cc(-c4ccccc4Cl)oc23)[C@H](O)C1 [alvocidib]
How it was run: as §1

Tubastatin A = compound: CN1CCc2c(c3ccccc3n2Cc2ccc(C(=O)NO)cc2)C1 [Tubastatin A]
How it was run: as §1

[6] = compound: CNC(=O)C1=CC=CC=C1NC2=NC(=NC=C2Cl)NC3=C(C=C(C=C3)N4CCOCC4)OC
How it was run: as §1

defactinib = compound: CNC(=O)c1ccc(Nc2ncc(C(F)(F)F)c(NCc3nccnc3N(C)S(C)(=O)=O)n2)cc1 [defactinib]
How it was run: as §1

[7] = compound: CNc1nc(-c2ccc3c(N)n[nH]c3c2)cc(N2C[C@@H](C(=O)NC3CCCCC3)CC[C@H]2C)n1
How it was run: as §1

encorafenib = compound: COC(=O)N[C@@H](C)CNc1nccc(-c2cn(C(C)C)nc2-c2cc(Cl)cc(NS(C)(=O)=O)c2F)n1 [encorafenib]
How it was run: as §1

[8] = compound: COC(=O)[C@H](CCSC)NC(=O)C1=C(C=C(C=C1)NC[C@H](CS)N)C2=CC=CC=C2
How it was run: as §1

alisertib = compound: COc1cc(Nc2ncc3c(n2)-c2ccc(Cl)cc2C(c2c(F)cccc2OC)=NC3)ccc1C(=O)O [alisertib]
How it was run: as §1

[9] = compound: COc1cc2nc(-c3cc(F)ccc3O)nc(N[C@@H]3CNC[C@H]3C(C)(C)O)c2cc1OC
How it was run: as §1

gefitinib = compound: COc1cc2ncnc(Nc3ccc(F)c(Cl)c3)c2cc1OCCCN1CCOCC1 [gefitinib]
How it was run: as §1

Row | Target | log2 fold change (vemurafenib) | log2 fold change [1] | log2 fold change (barasertib) | log2 fold change [2] | log2 fold change (volasertib) | log2 fold change [3] | log2 fold change [4] | log2 fold change [5] | log2 fold change (saracatinib) | log2 fold change (sotrastaurin) | log2 fold change (alvocidib) | log2 fold change (Tubastatin A) | log2 fold change [6] | log2 fold change (defactinib) | log2 fold change [7] | log2 fold change (encorafenib) | log2 fold change [8] | log2 fold change (alisertib) | log2 fold change [9] | log2 fold change (gefitinib)
1 | AP5M1 (UniProt Q9H0R1) | inactive: -0.205 | inactive: -0.021 | inactive: -0.022 | inactive: 0.012 | inactive: -0.029 | inactive: 0.036 | inactive: 0.205 | inactive: 0.012 | inactive: 0.007 | inactive: 0.009 | inactive: -0.02 | inactive: 0.013 | inactive: 0.057 | inactive: 0.021 | inactive: -0.083 | inactive: -0.139 | inactive: -0.014 | inactive: 0.022 | inactive: -0.051 | inactive: -0.024
2 | APOL2 (UniProt J3KQL8) | inactive: 0.066 | inactive: -0.028 | inactive: 0.097 | inactive: -0.289 | inactive: -0.141 | inactive: 0.037 | inactive: 0.087 | inactive: -0.045 | inactive: -0.006 | inactive: 0.003 | inactive: -0.023 | inactive: -0.074 | inactive: -0.038 | inactive: -0.286 | inactive: -0.202 | inactive: 0.051 | inactive: -0.176 | inactive: -0.102 | inactive: -0.017 | inactive: 0.057
3 | APEH (UniProt P13798) | inactive: -0.005 | inactive: -0.01 | inactive: -0.017 | inactive: 0.022 | inactive: 0.03 | inactive: 0.008 | inactive: 0.03 | inactive: 0.016 | inactive: -0.001 | inactive: -0.012 | inactive: 0.011 | inactive: 0.011 | inactive: 0 | inactive: -0.013 | inactive: 0.013 | inactive: -0.005 | inactive: -0.015 | inactive: -0.015 | inactive: -0.01 | inactive: 0
4 | ARGLU1 (UniProt Q9NWB6) | inactive: -0.013 | inactive: 0.027 | inactive: -0.043 | inactive: 0.001 | inactive: 0.027 | inactive: -0.035 | inactive: 0.073 | inactive: -0.02 | inactive: 0.047 | inactive: -0.019 | inactive: -0.119 | inactive: 0.018 | inactive: -0.056 | inactive: -0.049 | inactive: 0.01 | inactive: 0.012 | inactive: -0.039 | inactive: -0.006 | inactive: 0.012 | inactive: 0.006
5 | ARF3 (UniProt P61204) | inactive: -0.003 | inactive: 0.001 | inactive: 0.069 | inactive: 0.027 | inactive: 0.024 | inactive: -0.013 | inactive: -0.135 | inactive: 0.097 | inactive: -0.023 | inactive: 0.005 | inactive: -0.058 | inactive: 0.066 | inactive: 0.015 | inactive: 0.016 | inactive: 0.034 | inactive: 0.016 | inactive: -0.015 | inactive: 0.008 | inactive: 0.051 | inactive: 0.032
6 | ARHGAP6 (UniProt O43182) | inactive: 0.074 | inactive: 0.038 | inactive: 0.116 | inactive: -0.038 | inactive: -0.107 | inactive: -0.014 | inactive: 0.072 | inactive: -0.139 | inactive: 0.031 | inactive: -0.049 | inactive: 0.003 | inactive: -0.201 | inactive: 0.129 | inactive: 0.012 | inactive: -0.017 | inactive: 0.06 | inactive: 0.063 | inactive: 0.017 | inactive: -0.012 | inactive: -0.069
7 | ARIH2 (UniProt O95376) | inactive: -0.048 | inactive: -0.009 | inactive: -0.016 | inactive: 0.032 | inactive: 0 | inactive: -0.002 | inactive: 0.096 | inactive: -0.004 | inactive: 0.003 | inactive: -0.09 | inactive: -0.043 | inactive: 0.052 | inactive: 0.031 | inactive: 0.051 | inactive: 0.028 | inactive: 0.023 | inactive: -0.018 | inactive: -0.001 | inactive: -0.023 | inactive: -0.011
8 | ARAF (UniProt P10398) | active: 0.411 | inactive: 0.058 | inactive: 0.015 | inactive: -0.069 | inactive: -0.038 | inactive: -0.015 | inactive: 0.042 | inactive: 0 | inactive: 0.005 | inactive: 0.002 | inactive: 0.036 | inactive: -0.08 | inactive: 0.019 | inactive: -0.039 | inactive: -0.105 | active: 0.307 | inactive: 0.093 | inactive: -0.048 | inactive: 0.007 | inactive: 0.019
